From patent US11542340
Results are given in words; binding and its absence hold for the method and conditions named. Some entries that bind do so weakly or less than the wild type.

Tests used:
[1] = target: T1, VEIFYR peptide (LG3BP tryptic peptide); test: Peptide Target listed for the purified subclone (selected by peptide ELISA)
T1 sequence (peptide): VEIFYR

[2] = target: T1, VEIFYR peptide (LG3BP tryptic peptide); test: indirect ELISA on directly coated peptide

binding [1]: binds
binding [2]: binds
B1: LG3BP-AJ-1.2-14E09-02F04 (antibody, V domains shown)
VH: QVQLQQPGAELVKPGASVKLSCKASGYTFSSYWMHWVKQRPGQGLEWIGEINRSNGRTNYNEKFKSKATLTVDKSSTTAYMQLSSLTSEDSAVYYCTKWGVTSDYWGQGTTLTVSS
VL: ENVLTQSPAIMSASPGEKVTMTCSASSNVNYMHWFQQKSSTSPKLWIYDTSKLASGVPGRFSGSGSGNSYSLTISSMEAEDVATYYCFQGSGYPRTFGGGTKLEIK
